Some of the results follow.
Legend:
Assay in all cases: log2 fold change, soluble protein after heating vs DMSO (PISA); higher = thermal stabilisation; K562 lysate, 10 uM; active = over 0.2 and 3.5 SD of the protein, either way, in both replicates (recomputed)
[1] = compound: CN1CC[C@H](c2c(O)cc(O)c3c(=O)cc(-c4ccccc4Cl)oc23)[C@H](O)C1 [alvocidib]
How it was run: (§1)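 Pellets of K562 cells were dounce-homogenised in PBS pH 7.4 with 1 mM MgCl2, and the crude extract was held at 1 mg/mL protein for a 30 min treatment with 10 μM compound. Aliquots were heated for 3 min over 48°C-58°C and pooled before NP-40 was added to 0.5% at 4°C. The supernatant from 21,000xg for 90 min was quantified by TMTpro 16plex LC-MS/MS with channel sums equalised. Values are reported from duplicates as log-two fold change in thermal stability relative to solvent controls.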

Amino acid sequences for entries named in this document (tags omitted). A change or cut given only in a name is not applied to a line headed by its entry.
UniProt Q96EY8: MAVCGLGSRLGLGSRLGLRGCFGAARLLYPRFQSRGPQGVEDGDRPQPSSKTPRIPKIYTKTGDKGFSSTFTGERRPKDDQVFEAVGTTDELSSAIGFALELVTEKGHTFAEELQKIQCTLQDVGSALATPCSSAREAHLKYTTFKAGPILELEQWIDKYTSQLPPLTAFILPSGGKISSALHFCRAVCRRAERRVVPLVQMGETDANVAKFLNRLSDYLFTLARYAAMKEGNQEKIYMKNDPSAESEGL
UniProt P25325: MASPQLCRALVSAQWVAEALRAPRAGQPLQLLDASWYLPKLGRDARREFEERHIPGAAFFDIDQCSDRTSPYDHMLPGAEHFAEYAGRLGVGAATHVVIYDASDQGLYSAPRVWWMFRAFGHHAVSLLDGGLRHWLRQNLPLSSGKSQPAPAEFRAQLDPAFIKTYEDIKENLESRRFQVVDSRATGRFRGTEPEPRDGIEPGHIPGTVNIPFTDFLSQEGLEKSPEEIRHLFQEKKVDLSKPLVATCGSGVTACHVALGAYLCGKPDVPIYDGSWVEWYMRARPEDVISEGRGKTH
UniProt O95297: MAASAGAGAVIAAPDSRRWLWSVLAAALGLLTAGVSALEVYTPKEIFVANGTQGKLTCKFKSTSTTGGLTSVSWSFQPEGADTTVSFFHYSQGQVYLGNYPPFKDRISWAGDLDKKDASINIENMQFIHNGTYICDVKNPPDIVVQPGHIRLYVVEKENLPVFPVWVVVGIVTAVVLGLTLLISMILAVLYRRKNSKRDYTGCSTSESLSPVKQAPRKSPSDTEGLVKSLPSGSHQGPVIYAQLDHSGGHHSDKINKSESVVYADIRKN
UniProt Q70IA6: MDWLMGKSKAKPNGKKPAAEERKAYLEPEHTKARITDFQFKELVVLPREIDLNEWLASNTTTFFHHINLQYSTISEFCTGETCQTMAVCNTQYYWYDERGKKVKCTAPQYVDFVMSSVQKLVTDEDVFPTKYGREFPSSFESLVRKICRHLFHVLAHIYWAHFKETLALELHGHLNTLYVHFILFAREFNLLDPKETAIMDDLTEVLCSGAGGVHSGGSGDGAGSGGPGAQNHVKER
UniProt Q9H8M7: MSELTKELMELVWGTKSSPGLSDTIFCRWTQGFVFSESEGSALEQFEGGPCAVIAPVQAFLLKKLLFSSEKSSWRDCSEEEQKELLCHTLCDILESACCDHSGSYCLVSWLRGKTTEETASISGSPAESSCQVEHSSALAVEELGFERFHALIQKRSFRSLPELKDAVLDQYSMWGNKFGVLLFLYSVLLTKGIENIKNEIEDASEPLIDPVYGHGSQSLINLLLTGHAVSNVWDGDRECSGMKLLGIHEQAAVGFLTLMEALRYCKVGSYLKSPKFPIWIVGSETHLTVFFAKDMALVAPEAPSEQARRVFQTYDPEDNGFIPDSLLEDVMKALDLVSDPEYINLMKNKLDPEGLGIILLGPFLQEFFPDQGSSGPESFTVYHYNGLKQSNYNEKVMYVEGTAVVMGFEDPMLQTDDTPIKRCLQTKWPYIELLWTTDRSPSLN
UniProt P22033: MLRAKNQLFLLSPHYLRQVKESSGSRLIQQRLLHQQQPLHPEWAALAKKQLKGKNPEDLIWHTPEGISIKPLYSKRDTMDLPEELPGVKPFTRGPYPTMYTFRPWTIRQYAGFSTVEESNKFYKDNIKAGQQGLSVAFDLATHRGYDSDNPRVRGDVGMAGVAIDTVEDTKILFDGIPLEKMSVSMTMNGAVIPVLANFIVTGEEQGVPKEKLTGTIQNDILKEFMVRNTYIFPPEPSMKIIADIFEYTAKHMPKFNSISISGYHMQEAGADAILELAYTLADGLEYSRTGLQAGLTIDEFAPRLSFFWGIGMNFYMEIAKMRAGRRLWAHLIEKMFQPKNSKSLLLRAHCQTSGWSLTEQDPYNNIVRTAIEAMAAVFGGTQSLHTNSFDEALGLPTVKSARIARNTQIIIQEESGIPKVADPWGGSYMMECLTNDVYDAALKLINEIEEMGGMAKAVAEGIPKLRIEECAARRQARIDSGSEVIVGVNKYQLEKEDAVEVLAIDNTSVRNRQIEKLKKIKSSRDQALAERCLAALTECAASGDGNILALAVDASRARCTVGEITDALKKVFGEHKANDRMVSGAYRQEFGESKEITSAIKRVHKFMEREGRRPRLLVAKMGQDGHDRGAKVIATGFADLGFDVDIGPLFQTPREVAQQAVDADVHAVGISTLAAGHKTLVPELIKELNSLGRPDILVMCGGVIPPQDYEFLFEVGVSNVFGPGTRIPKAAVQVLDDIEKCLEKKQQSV
UniProt Q9Y605: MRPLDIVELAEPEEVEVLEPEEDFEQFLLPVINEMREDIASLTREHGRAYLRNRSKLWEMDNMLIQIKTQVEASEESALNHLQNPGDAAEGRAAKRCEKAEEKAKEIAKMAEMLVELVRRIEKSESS
UniProt A9UHW6: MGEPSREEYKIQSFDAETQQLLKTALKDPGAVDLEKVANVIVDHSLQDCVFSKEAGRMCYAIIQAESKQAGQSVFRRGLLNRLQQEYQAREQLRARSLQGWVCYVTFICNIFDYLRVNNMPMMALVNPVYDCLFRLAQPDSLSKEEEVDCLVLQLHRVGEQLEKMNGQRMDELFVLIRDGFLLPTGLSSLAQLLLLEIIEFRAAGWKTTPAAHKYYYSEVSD

[2] = compound: CN1CCc2c(c3ccccc3n2Cc2ccc(C(=O)NO)cc2)C1 [Tubastatin A]
How it was run: as §1

[3] = compound: CNC(=O)C1=CC=CC=C1NC2=NC(=NC=C2Cl)NC3=C(C=C(C=C3)N4CCOCC4)OC
How it was run: as §1

[4] = compound: CNC(=O)c1ccc(Nc2ncc(C(F)(F)F)c(NCc3nccnc3N(C)S(C)(=O)=O)n2)cc1 [defactinib]
How it was run: as §1

[5] = compound: CNc1nc(-c2ccc3c(N)n[nH]c3c2)cc(N2C[C@@H](C(=O)NC3CCCCC3)CC[C@H]2C)n1
How it was run: as §1

[6] = compound: COC(=O)N[C@@H](C)CNc1nccc(-c2cn(C(C)C)nc2-c2cc(Cl)cc(NS(C)(=O)=O)c2F)n1 [encorafenib]
How it was run: as §1

[7] = compound: COC(=O)[C@H](CCSC)NC(=O)C1=C(C=C(C=C1)NC[C@H](CS)N)C2=CC=CC=C2
How it was run: as §1

[8] = compound: COc1cc(Nc2ncc3c(n2)-c2ccc(Cl)cc2C(c2c(F)cccc2OC)=NC3)ccc1C(=O)O [alisertib]
How it was run: as §1

[9] = compound: COc1cc2nc(-c3cc(F)ccc3O)nc(N[C@@H]3CNC[C@H]3C(C)(C)O)c2cc1OC
How it was run: as §1

[10] = compound: COc1cc2ncnc(Nc3ccc(F)c(Cl)c3)c2cc1OCCCN1CCOCC1 [gefitinib]
How it was run: as §1

[11] = compound: CS(=O)(=O)CCNCc1ccc(-c2ccc3ncnc(Nc4ccc(OCc5cccc(F)c5)c(Cl)c4)c3c2)o1 [lapatinib]
How it was run: as §1

[12] = compound: CS(=O)(=O)N1CCN(Cc2cc3nc(-c4cccc5[nH]ncc45)nc(N4CCOCC4)c3s2)CC1 [pictilisib]
How it was run: as §1

[13] = compound: C[C@@H](Oc1cc(-c2cnn(C3CCNCC3)c2)cnc1N)c1c(Cl)ccc(F)c1Cl [crizotinib]
How it was run: as §1

[14] = compound: C[C@H](C1=CC=C(C=C1)C(=O)NC2=C3C=CNC3=NC=C2)N
How it was run: as §1

[15] = compound: C[C@H](Nc1ncnc2nc[nH]c12)c1cc2cccc(Cl)c2c(=O)n1-c1ccccc1 [duvelisib]
How it was run: as §1

[16] = compound: Cc1cc(Nc2cc(CN3CCOCC3)c3nc(C)c(Cc4ccc(Cl)cc4F)n3n2)n[nH]1 [gandotinib]
How it was run: as §1

[17] = compound: Cc1cc(Nc2cc(N3CCN(C)CC3)nc(Sc3ccc(NC(=O)C4CC4)cc3)n2)n[nH]1 [tozasertib]
How it was run: as §1

[18] = compound: Cc1ccc(-n2nc(C(C)(C)C)cc2NC(=O)Nc2ccc(OCCN3CCOCC3)c3ccccc23)cc1 [doramapimod]
How it was run: as §1

[19] = compound: Cc1ccc(NC(=O)c2ccc(CN3CC[C@H](N(C)C)C3)c(C(F)(F)F)c2)cc1Nc1nccc(-c2cncnc2)n1 [bafetinib]
How it was run: as §1

[20] = compound: Cc1cccc(CC(=O)N2CCc3c2ccc(-c2cn(C)c4ncnc(N)c24)c3F)n1
How it was run: as §1

Measured: log2 fold change

MMAB (UniProt Q96EY8)
inactive: [1] 0.013 | [2] 0.064 | [3] -0.003 | [4] 0.029 | [5] 0.087 | [6] 0 | [7] -0.06 | [8] -0.058 | [9] -0.006 | [10] -0.042 | [11] 0.008 | [12] 0 | [13] 0 | [14] -0.038 | [15] 0.005 | [16] -0.005 | [17] -0.008 | [18] -0.03 | [19] 0.037 | [20] -0.013

MPST isoform 2 (UniProt P25325)
inactive: [1] 0.019 | [2] -0.031 | [3] 0.045 | [4] -0.002 | [5] -0.018 | [6] 0.004 | [7] 0.062 | [8] -0.003 | [9] -0.008 | [10] -0.017 | [11] -0.01 | [12] -0.044 | [13] -0.016 | [14] -0.036 | [15] -0.003 | [16] 0.004 | [17] -0.029 | [18] 0.016 | [19] -0.019 | [20] -0.017

MPZL1 (UniProt O95297)
inactive: [1] -0.01 | [2] 0.048 | [3] -0.014 | [4] 0.01 | [5] 0.028 | [6] 0.045 | [7] -0.082 | [8] 0.007 | [9] 0.012 | [10] 0.016 | [11] -0.006 | [12] -0.026 | [13] 0.074 | [14] 0.132 | [15] 0.001 | [16] -0.009 | [17] -0.029 | [18] -0.087 | [19] -0.027 | [20] -0.107

MOB2 isoform 3 (UniProt Q70IA6)
inactive: [1] 0.007 | [2] -0.036 | [3] 0.112 | [4] 0.062 | [5] -0.008 | [6] 0.088 | [7] 0.083 | [8] -0.014 | [9] 0.071 | [10] -0.016 | [11] 0.025 | [12] 0.06 | [13] -0.019 | [14] 0.055 | [15] -0.024 | [16] -0.127 | [17] -0.009 | [18] 0.013 | [19] 0.047 | [20] -0.019

MINDY3 (UniProt Q9H8M7)
inactive: [1] -0.036 | [2] -0.006 | [3] -0.014 | [4] 0.032 | [5] -0.025 | [6] -0.001 | [7] -0.051 | [8] -0.01 | [9] -0.018 | [10] 0 | [11] -0.004 | [12] -0.028 | [13] 0.041 | [14] -0.08 | [15] 0 | [16] 0.034 | [17] 0.045 | [18] -0.003 | [19] -0.025 | [20] 0.008

MMUT (UniProt P22033)
inactive: [1] -0.023 | [2] 0.001 | [3] -0.012 | [4] -0.003 | [5] -0.038 | [6] 0.024 | [7] -0.04 | [8] 0.014 | [9] 0.004 | [10] -0.005 | [11] 0.007 | [12] -0.008 | [13] 0.03 | [14] -0.031 | [15] -0.011 | [16] -0.022 | [17] 0.024 | [18] -0.02 | [19] -0.043 | [20] 0

MRFAP1 (UniProt Q9Y605)
inactive: [1] 0.081 | [2] -0.044 | [3] 0.051 | [4] -0.096 | [5] -0.016 | [6] 0.012 | [7] -0.056 | [8] 0.084 | [9] -0.061 | [10] 0.026 | [11] -0.052 | [12] 0.016 | [13] 0.032 | [14] -0.038 | [15] -0.01 | [16] 0 | [17] 0.043 | [18] -0.041 | [19] 0.016 | [20] -0.16

MIF4GD isoform 3 (UniProt A9UHW6)
inactive: [1] 0.021 | [2] 0.014 | [3] 0.002 | [4] -0.01 | [5] -0.066 | [6] -0.012 | [7] 0.01 | [8] -0.037 | [9] 0.007 | [10] 0.049 | [11] -0.008 | [12] -0.054 | [13] 0.012 | [14] 0.023 | [15] 0.041 | [16] 0.021 | [17] 0.005 | [18] 0.025 | [19] -0.03 | [20] 0.013
